PubChem BioAssay AID1259308, NCATS | 2017
The whole screen tested about 59,000 reagents; this is an unselected part. In the full data, about 1,510 (2.6%) are marked active. 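Calls use total luciferase alone and ignore viability, so some active siRNAs may act by altering cell number.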 Reagents against one gene are numbered here. Further read-outs or replicates are left out here.

- Assay: 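Candidate targets for better recombinant protein yield in mammalian cells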 (primary screen)
- Cell system: human HEK293 embryonic kidney cells stably expressing firefly luciferase (HEK-CMV-Luc2-Hygro)
- Reagents: single siRNA against human genes, 0.8 pmol siRNA per well
- Timing: 72 h
- Measurement: 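Reporter luminescence and viable-cell signal on separate replicate plates, given as percent of non-targeting control and median/MAD z-scores, plus per-cell luciferase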
- Reading the numbers: total luciferase, z-score and total luciferase, % of control: higher = more reporter protein produced; luciferase per cell, z-score: higher = more reporter output per viable cell
- Active means: 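Active when the median/MAD z-score for overall luciferase is greater than 3; a gene was taken forward for validation with new siRNAs if at least two of its three siRNAs passed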
- Calls: active = raised luciferase; inactive = no rise

Gene	reagent no.	total luciferase, z-score	total luciferase, % of control	luciferase per cell, z-score	Call
PTGES3P3	1	0.73	96.4	0.715	inactive
PTGES3P3	2	-0.582	70.3	-1.05	inactive
PTGES3P3	3	-0.57	70.6	0.338	inactive
KRT81	1	-0.739	67.2	-0.91	inactive
KRT81	2	-1.19	58.2	-2.1	inactive
KRT81	3	0.691	95.6	0.0979	inactive
OR5P3	1	1.42	110	1.55	inactive
OR5P3	2	-0.331	75.3	0.996	inactive
OR5P3	3	-1.63	49.4	-1.75	inactive
CCDC57	1	-0.316	75.6	-0.245	inactive
CCDC57	2	-1.93	43.6	-2.08	inactive
CCDC57	3	1.49	111	0.93	inactive
BMP15	1	0.068	83.2	-0.193	inactive
BMP15	2	0.322	88.3	0.161	inactive
BMP15	3	1.76	117	1.05	inactive
ISCA2	1	-0.689	68.2	-0.854	inactive
ISCA2	2	-2.18	38.4	-1.45	inactive
ISCA2	3	-0.739	67.2	-0.6	inactive
MRPL18	1	-0.902	63.9	-1.69	inactive
MRPL18	2	-0.918	63.6	0.0891	inactive
MRPL18	3	-0.755	66.9	-0.42	inactive
EFNA1	1	-1.37	54.6	-1.28	inactive
EFNA1	2	-0.513	71.7	-0.584	inactive
EFNA1	3	0.448	90.8	-0.00272	inactive
CNPY2	1	0.817	98.1	0.129	inactive
CNPY2	2	0.338	88.6	0.476	inactive
CNPY2	3	0.145	84.8	-0.577	inactive
NUMA1	1	0.0688	83.3	-0.667	inactive
NUMA1	2	0.956	101	0.458	inactive
NUMA1	3	-1.81	46	-2.91	inactive
MAP1LC3BP1	1	1.04	102	1.59	inactive
MAP1LC3BP1	2	-0.173	78.4	0.163	inactive
MAP1LC3BP1	3	-1.48	52.4	-0.958	inactive
HS3ST6	1	-1.73	47.4	0.145	inactive
HS3ST6	2	0.829	98.4	0.217	inactive
HS3ST6	3	-0.862	64.7	-1.36	inactive
CBLN2	1	-0.989	62.2	-1.45	inactive
CBLN2	2	0.776	97.3	0.376	inactive
CBLN2	3	-0.311	75.7	-0.464	inactive

6 of these entries, reformatted:
{"Gene": "CCDC57", "reagent no.": 2, "total luciferase, z-score": -1.93, "total luciferase, % of control": 43.6, "luciferase per cell, z-score": -2.08, "Call": "inactive"}
{"Gene": "CCDC57", "reagent no.": 3, "total luciferase, z-score": 1.49, "total luciferase, % of control": 111, "luciferase per cell, z-score": 0.93, "Call": "inactive"}
{"Gene": "BMP15", "reagent no.": 1, "total luciferase, z-score": 0.068, "total luciferase, % of control": 83.2, "luciferase per cell, z-score": -0.193, "Call": "inactive"}
{"Gene": "BMP15", "reagent no.": 2, "total luciferase, z-score": 0.322, "total luciferase, % of control": 88.3, "luciferase per cell, z-score": 0.161, "Call": "inactive"}
{"Gene": "BMP15", "reagent no.": 3, "total luciferase, z-score": 1.76, "total luciferase, % of control": 117, "luciferase per cell, z-score": 1.05, "Call": "inactive"}
{"Gene": "ISCA2", "reagent no.": 1, "total luciferase, z-score": -0.689, "total luciferase, % of control": 68.2, "luciferase per cell, z-score": -0.854, "Call": "inactive"}
